This test can be described thus: qHTS Assay for Lipid Storage Modulators in Drosophila S3 Cells.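 As to cell number change: cells counted by Cell Tracker Red CMTPX staining in the red channel.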 Conditions: BODIPY lipid droplet fluorescence, 18-24 h; for cell number change: measured here: cell count max response, cells fed with added oleic acid. An outline of the steps: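 Laser-scanning cytometry quantifies lipid droplet accumulation (500–530 nm total intensity; droplet/cell object ratio) in oleic acid-fed (400 uM added) Drosophila S3 cells treated with a concentration series. 20 uM Triacsin C defined 100% inhibition.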
In general terms: Quantitative high-throughput screening tests each substance at several concentrations.

Where [1] appears, read: measured here: cell number channel AC50, cells fed with added oleic acid.
Setting [2] is: measured here: lipid fluorescence (Fed channel) AC50, cells fed with added oleic acid.

Some of the results follow. Further columns of the screen follow, without active or inactive calls. The list favours compounds with an active or inconclusive main result. Words in brackets tell the shape of the fitted curve; partial curves, single points and poor fits give uncertain potencies.

A word on the AC50: it is the concentration at which the activity in the assay is half-maximal. Turning to `CCN(CC)CCNC(=O)c1cn(CC)c2ccc(S(=O)(=O)N3CCc4ccccc4C3)cc2c1=O`, the cell number change was determined as 31.6%. The concentration at half-maximal activity (AC50) under setting [1] was 0.411 µM [rising, full curve, poor fit]. The AC50 under setting [2] is 16.4 µM [rising, partial curve].
As for `COCCNS(=O)(=O)c1cc(OC)c(Cl)cc1Cl`, the cell number change was -1.52%. The AC50 under setting [1] was 0.00461 µM [falling, full curve, poor fit]. Further, under setting [2], the AC50 is 0.103 µM [falling, full curve, poor fit].
As for `CSCCC(NC(=O)c1ccco1)C(=O)NCC1CCCCC1` (stereo unspecified), the cell number change came to 5.97%. For the same compound, under setting [2], the AC50 is 0.731 µM [rising, partial curve, poor fit].
As for `CCSc1nnc(NC(=O)C(C)(C)C)s1`, the cell number change was found to be 36%. Further, the concentration at half-maximal activity (AC50) under setting [1] was 16.4 µM [rising, partial curve, poor fit].
As to `O=C(NC1CCCCC1)c1ccc(N2CCOCC2)c([N+](=O)[O-])c1`, the cell number change is -7.92%. Further, under setting [2], the half-maximal activity concentration (AC50) was 6.51 µM [falling, single point].
Turning to `O=Cc1ccc(-c2ccccc2C(=O)O)o1`, the cell number change is 28.2%.
With `C/C=C\C=C\C(=O)N1CC2(CC(c3cccc(NC(=O)COc4ccc(Cl)cc4)c3)=NO2)C[C@H]1C(N)=O` (stereo partly specified), the cell number change is -53%. Moreover, the half-maximal activity concentration (AC50) under setting [1] is 0.92 µM [falling, full curve]. Further, the AC50 under setting [2] is 5.17 µM [falling, full curve].
`N#Cc1c(=O)c2nc(NCCCO)ncc2n2c(=O)c3ccccc3[nH]c12`: the cell number change was 4.78%. Besides, under setting [1], the concentration at half-maximal activity (AC50) was 0.366 µM [falling, partial curve, poor fit]. The AC50 under setting [2] is 0.00517 µM [falling, full curve, poor fit].
As to `COc1ccc(NC(=O)COC(=O)/C=C/c2cnc3ccccc3n2)cc1`, the cell number change was -70.5%. For the same compound, under setting [1], the half-maximal activity concentration (AC50) is 0.00517 µM [falling, full curve, poor fit].
`C=CCn1c(=NC(=O)c2cc(-c3cccs3)nc3ccccc23)sc2cc(S(N)(=O)=O)ccc21`: the cell number change was found to be 22%. For the same compound, the AC50 under setting [2] is 3.26 µM [rising, partial curve].
Regarding `NC(=O)c1ccc(NC(=O)c2cncn2-c2ccccc2)cc1`, the cell number change was -13.2%. In addition, the AC50 under setting [2] was 1.78 µM [rising, partial curve].
Consider `COc1ccc(N2CCN(c3cc(C)c4cccc(C)c4n3)CC2)cc1`, for which the cell number change is -50.9%. The AC50 under setting [1] is 29.1 µM [falling, single point]. Besides, the AC50 under setting [2] was 5.8 µM [falling, full curve].
For the compound `Cc1ccc(S(=O)(=O)N2CCCC2)cc1C(=O)NCCN1CCOCC1`, the cell number change worked out at 15.7%.
With `CC(=O)c1ccc(N(CC(=O)NCC2CCCO2)C(=O)CCC(=O)Nc2cc(C)on2)cc1` (stereo unspecified), the cell number change came to 7.08%.
As for `COc1ccc(COC(=O)C2CCN(S(=O)(=O)c3ccc(C)cc3)CC2)cc1`, the cell number change was -25%. Besides, the AC50 under setting [1] is 2.59 µM [rising, partial curve].
Turning to `CC(NC(=O)c1ccccc1SCC(=O)N1CCCC1)c1ccc(F)cc1` (stereo unspecified), the cell number change was 22.2%.
Regarding `CCN(CC)CCCNc1nnc(C)c(=O)[nH]1`, the cell number change came to 19.8%. Further, under setting [1], the concentration at half-maximal activity (AC50) is 0.00411 µM [rising, full curve, poor fit].
For the compound `O=C(Cn1cc2c(n1)CCCC2)NC1CCN(Cc2ccccc2)CC1`, the cell number change worked out at 13.1%.
Turning to `CC(=O)c1ccc(NC(=O)C(C)OC(=O)C2CCN(c3ccc(C(F)(F)F)cn3)CC2)cc1` (stereo unspecified), the cell number change was found to be 54.5%. Also, the concentration at half-maximal activity (AC50) under setting [1] was 18.4 µM [rising, single point].
With `OCCN1CCN(c2ncnc3c2sc2nc(N4CCOCC4)c4c(c23)CCC4)CC1`, the cell number change is -18.5%. Under setting [2], the AC50 is 0.82 µM [falling, full curve].
With `CCC(=O)Nc1nnc(S(=O)(=O)N(C)c2cc(C)cc(C)c2)s1`, the cell number change was -43.3%.
For the compound `Cc1ccc(S(=O)(=O)NNC(=O)NC23CC4CC(CC(C4)C2)C3)cc1`, the AC50 under setting [2] was 29.1 µM [falling, single point].
Turning to `COc1ccccc1-c1nnc(SCC(=O)c2ccc(C3CCCCC3)cc2)n1Cc1ccco1`, the cell number change stood at 6.12%. The AC50 under setting [1] was 0.116 µM [falling, full curve, poor fit]. Under setting [2], the AC50 was 20.6 µM [rising, single point].
For `CC(C)(C)[C@H]1CCC(=O)N([C@H](CC#N)Cc2ccccc2)CC1`, under setting [2], the half-maximal activity concentration (AC50) is 32.6 µM [falling, partial curve, poor fit].
On to `O=S(=O)(Nc1nc2ccccc2nc1NCC1CCCO1)c1cc(Cl)ccc1Cl` (stereo unspecified), for which the cell number change is 20.9%. The AC50 under setting [2] is 13 µM [rising, partial curve].
In the case of `COc1cc(C2C(C(=O)c3ccc(C)o3)=C(O)C(=O)N2c2cc(C)on2)ccc1O` (stereo unspecified), the cell number change is 21.2%. For the same compound, under setting [2], the AC50 is 14.6 µM [falling, partial curve, poor fit].
Take `COc1cc(C(C(=O)NC2CCCC2)N(CCO)C(=O)Cn2nnc(-c3ccc(C)o3)n2)ccc1O` (stereo unspecified): the cell number change is 19.6%. The half-maximal activity concentration (AC50) under setting [2] was 6.51 µM [falling, single point].
Turning to `CCC1CCc2sc(C(=O)O)cc2C1` (stereo unspecified), the half-maximal activity concentration (AC50) was 0.0164 µM [rising, full curve, poor fit] under setting [1] and 6.51 µM [rising, single point] under setting [2].
As for `OCC1(Cc2ccccc2C(F)(F)F)CCN(Cc2ccc3c(c2)CCO3)CC1`, under setting [2], the half-maximal activity concentration (AC50) is 1.46 µM [falling, full curve].
Turning to `CCc1ccc(OCc2nnc(SCC(=O)Nc3cccc(C(=O)N4CCOCC4)c3)o2)cc1`, the cell number change was -14.1%. Further, the half-maximal activity concentration (AC50) under setting [2] is 0.092 µM [falling, full curve, poor fit].
Regarding `Cc1onc(-c2ccccc2)c1C(=O)Nc1sc2c(c1C#N)CCC2`, under setting [1], the AC50 was 2.31 µM [rising, single point].
With `CCOC(=O)/C(C#N)=C\c1ccc(OCC(=O)Nc2ccc(C)cc2C)c(OC)c1`, the cell number change was 4.31%. Further, the concentration at half-maximal activity (AC50) under setting [1] was 2.31 µM [rising, partial curve, poor fit]. Moreover, under setting [2], the half-maximal activity concentration (AC50) is 0.0651 µM [rising, full curve, poor fit].
For `Cc1nonc1OCCNCc1c(C(=O)N2CCCCCCC2)nc2ccc(Cl)cn12`, the cell number change was -9.44%. Under setting [2], the AC50 was 23.1 µM [falling, partial curve].
With `COc1ccc(C(=O)O)cc1S(=O)(=O)Nc1ccc(C)cc1`, the cell number change is -43.8%. For the same compound, under setting [1], the AC50 was 0.184 µM [falling, full curve].
On to `CC(C)CCNc1nc(N2CCCC2)c2c(c1C#N)CCN(C)C2`, for which the cell number change came out at 40.7%. Also, the AC50 under setting [1] was 1.64 µM [rising, partial curve].
For `Cc1cc(C)c2ccc(=O)n(CC(=O)N/N=C/c3ccccc3Cl)c2n1`, the cell number change came out at 33.5%. Moreover, the AC50 under setting [1] was 0.00461 µM [rising, full curve, poor fit].
Turning to `COc1ccc2c(CC(=O)NCCN3C(=O)S/C(=C\c4cccnc4)C3=O)coc2c1`, the cell number change is -141%. Besides, under setting [1], the concentration at half-maximal activity (AC50) is 29.1 µM [falling, single point]. Also, the AC50 under setting [2] was 29.1 µM [falling, single point].
Take `O=C(N/N=C/c1ccc(Br)s1)c1ccc([N+](=O)[O-])cc1`: the AC50 reads like this: under setting [1], 1.64 µM [rising, partial curve]; under setting [2], 2.31 µM [rising, partial curve].
On to `O=C(Nc1ccc(Cl)c(Cl)c1)N1CC=CCC1`, for which the cell number change was 3.31%.
With `CC1(C)CC(NC(=O)COc2ccc(Br)cc2Cl)CC(C)(C)N1`, the cell number change was 36.4%. Under setting [1], the AC50 was 29.1 µM [rising, single point]. For the same compound, the half-maximal activity concentration (AC50) under setting [2] was 29.1 µM [rising, single point].
Consider `O=C(CS(=O)(=O)c1ccccc1)N1CCN(c2ccccc2)CC1`, for which the cell number change is -50%. Moreover, under setting [1], the half-maximal activity concentration (AC50) is 16.4 µM [falling, single point].
`CN(C)c1ccc(N=c2sc3ccccc3n2C)cc1`: the cell number change was -57%. For the same compound, under setting [1], the AC50 was 20.6 µM [falling, single point].
For `CC(C)Cc1cc(C(=O)Nc2cccc(O)c2)no1`, the cell number change was -11.4%. The AC50 under setting [1] is 0.164 µM [falling, full curve, poor fit]. Moreover, the AC50 under setting [2] was 29.1 µM [falling, single point].
Consider `CCN(CC)CCNC1=NCCn2c1cc1cc(OC)ccc12`, for which the cell number change was -105%. Moreover, the AC50 under setting [1] was 25.9 µM [falling, partial curve].
Take `COc1c(C)cccc1C(=O)Nc1ccc(N2CCN(S(C)(=O)=O)CC2)cc1`: the cell number change turned out to be 18.7%. For the same compound, the AC50 under setting [2] was 0.164 µM [rising, full curve, poor fit].
With `O=C(C1=COCCO1)N1CCN(C(c2ccccc2)c2ccccc2)CC1`, the cell number change was -1.48%.
For `CC1CC(C)CN(C(=O)CSc2nc(N)cc(=O)[nH]2)C1` (stereo unspecified), the cell number change is -5.41%.
As to `Cc1nnc2c(NCC(C)c3ccccc3)nc3ccccc3n12` (stereo unspecified), the cell number change is 2.84%.
For the compound `CN(CC(=O)Nc1ccc(F)cc1)C(=O)CNC(=O)C1CCCCC1`, the cell number change amounted to 1.48%. Besides, the AC50 under setting [2] was 29.1 µM [rising, single point].
Regarding `COc1cccc(C2/C(=C(/O)c3cnn(-c4ccccc4)c3C)C(=O)C(=O)N2CCN(C)C)c1OC` (stereo unspecified), the cell number change came to 17.3%. Also, under setting [1], the half-maximal activity concentration (AC50) is 1.84 µM [rising, partial curve, poor fit]. In addition, under setting [2], the AC50 was 6.51 µM [rising, single point].
Take `O=C(/C=C/c1ccc(Br)cc1)NCc1cccs1`: the cell number change was -7.06%. For the same compound, under setting [2], the half-maximal activity concentration (AC50) is 5.17 µM [falling, full curve].
As to `Cc1ccc(COC(=O)Cc2coc3cc(O)ccc23)cc1`, the cell number change is 18.8%. Also, under setting [2], the AC50 was 0.116 µM [rising, single point].
On to `NCc1c(O)ccc2ccccc12`, for which the cell number change turned out to be 14.3%. Further, the half-maximal activity concentration (AC50) under setting [2] is 6.51 µM [rising, single point].
As for `Cc1onc(-c2ccccc2)c1C(=O)N1CCN(C)CC1`, the cell number change was 3.26%. Also, the AC50 under setting [2] was 2.31 µM [falling, full curve, poor fit].
Take `Nc1ccc2c(c1)C(=O)C(=O)c1ccccc1-2`: the cell number change was -66.3%. For the same compound, the half-maximal activity concentration (AC50) under setting [1] is 7.31 µM [falling, partial curve]. Moreover, the concentration at half-maximal activity (AC50) under setting [2] was 7.31 µM [falling, partial curve].
`CCN(CC)c1ccc(S(=O)(=O)N2CCOCC2)cc1NC(=O)CSC(=S)N1CCCC1`: the cell number change is -32.3%. Further, under setting [1], the half-maximal activity concentration (AC50) was 20.6 µM [falling, partial curve, poor fit]. Further, the half-maximal activity concentration (AC50) under setting [2] is 29.1 µM [falling, single point].
On to `COc1ccc(OC)c(S(=O)(=O)Nc2cc(OC)c(Cl)cc2OC)c1`, for which the cell number change turned out to be 7.94%. The AC50 under setting [1] is 6.51 µM [rising, single point]. In addition, the concentration at half-maximal activity (AC50) under setting [2] is 29.1 µM [rising, partial curve].
For `CNc1nnc(-c2cc3cc(Cl)ccc3oc2=O)s1`, the cell number change is -1.61%. Besides, under setting [2], the half-maximal activity concentration (AC50) was 1.64 µM [rising, partial curve].
